Data from BindingDB's records for doi:10.1016/j.bmcl.2019.126806 (Temple University, 2020).

Target: T1, Lysosomal acid glucosylceramidase (Homo sapiens, UniProt P04062)
T1 sequence (P04062 whole entry): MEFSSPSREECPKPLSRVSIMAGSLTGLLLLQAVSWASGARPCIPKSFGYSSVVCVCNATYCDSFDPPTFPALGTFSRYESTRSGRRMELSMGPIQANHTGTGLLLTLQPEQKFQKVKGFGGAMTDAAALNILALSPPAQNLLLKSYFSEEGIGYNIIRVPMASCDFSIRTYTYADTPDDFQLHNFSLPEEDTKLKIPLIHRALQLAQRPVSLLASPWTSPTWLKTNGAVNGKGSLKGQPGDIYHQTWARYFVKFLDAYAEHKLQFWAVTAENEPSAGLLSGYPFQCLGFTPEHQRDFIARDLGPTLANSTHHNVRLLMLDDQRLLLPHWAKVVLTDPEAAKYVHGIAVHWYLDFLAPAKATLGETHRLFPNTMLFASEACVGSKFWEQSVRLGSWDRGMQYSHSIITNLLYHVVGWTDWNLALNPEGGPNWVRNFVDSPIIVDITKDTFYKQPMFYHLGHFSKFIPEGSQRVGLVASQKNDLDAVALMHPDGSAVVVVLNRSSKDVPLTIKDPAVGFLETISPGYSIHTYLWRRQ
Experiment: Chaperone activity at GCase in wild-type human fibroblasts assessed as increase in GPN-induced reduction of calcium release using Fluo-8AM based fluorescence assay

For CC/C(=C(\c1ccccc1)c1ccc(OCCN(C)C)cc1)c1ccccc1 [(2-{4-[(1Z)-1,2-diphenylbut-1-en-1-yl]phenoxy}ethyl)dimethylamine], which EC50 is on record?
The EC50 was 2500 nM.
